From PMC7819943, “Rice protein-binding microarrays: a tool to detect cis-acting elements near promoter regions in rice”
The list shows a part of the results.

The chains behind the UniProt entries cited, without tags or fusion partners.
UniProt Q0JBA9, entry or part of it: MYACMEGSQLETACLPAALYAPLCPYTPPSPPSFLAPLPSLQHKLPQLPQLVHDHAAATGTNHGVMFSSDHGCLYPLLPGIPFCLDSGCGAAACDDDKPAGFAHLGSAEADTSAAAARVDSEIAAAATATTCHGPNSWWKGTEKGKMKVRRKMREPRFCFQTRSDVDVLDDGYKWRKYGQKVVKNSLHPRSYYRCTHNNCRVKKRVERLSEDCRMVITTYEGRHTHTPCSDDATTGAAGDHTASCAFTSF

What follows are sequences tested against OsWRKY34 (Oryza sativa, UniProt Q0JBA9 1-250) (assay: protein-binding microarray (RPBM); PBS, 2% BSA, 51.3 ng/ul salmon testes DNA, 50 uM zinc acetate, 200 nM TF, 25 C, 1 h; high values mean tight binding). Settings: protein: recombinant; tags: N-terminal polyhistidine and DsRed monomer fusion (pET32a); label: CyDye5-dUTP incorporated in the synthesized complementary strand; 3' TTTTT single-stranded linker to array surface; dsDNA, one strand shown.
Method in brief: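 The binding signal is fluorescence intensity per array feature (arbitrary units). Readings came from an Axon 4000B scanner after a washed, 2% BSA-blocked, double-stranded custom Agilent array had been incubated for 1 h at 25 °C with 200 nM protein and 50 µM zinc acetate. The protein was a Ni–NTA-purified transcription factor fused N-terminally to polyhistidine and DsRed, expressed in E. coli BL21-CodonPlus.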

Sequence	binding signal
GGCGCGGCAGTCCGCTCAATCCCTCATCTTCTTCTGTCCTCGGAGTCACCTAGTGCAG	11200 fluorescence intensity (a.u.)
CCGGACATGATGCCCAAACATTTCCGCATTTCCGCTCCTCCGGAGTCACCTAGTGCAG	9360 fluorescence intensity (a.u.)
TGGGTTTGTGGGTTATGTTTCGGTGCGTGCCGATAGTATACGGAGTCACCTAGTGCAG	14300 fluorescence intensity (a.u.)
ATTTGTCAGTTACTAAACAGTACCACACACACCTTGTTATCGGAGTCACCTAGTGCAG	9820 fluorescence intensity (a.u.)
ATTTACCGGCCTCACTTCCCAGCCCGACTGGCAACAATTACGGAGTCACCTAGTGCAG	10600 fluorescence intensity (a.u.)
TTTAGCACTGTTCATGTTCAACATTTGACCGTTCGTCTTACGGAGTCACCTAGTGCAG	11400 fluorescence intensity (a.u.)
CGACGTTGTTCAGGTGGTCTCAACCTTTTTCTTGGTTTATCGGAGTCACCTAGTGCAG	10300 fluorescence intensity (a.u.)
CTGTAATGAAGTTCTGAGTGCCTTGTTACTTTATCACTTCCGGAGTCACCTAGTGCAG	8760 fluorescence intensity (a.u.)
TCTCCATCACCACCAATCTTTATCAACTTCGACAACTTCCCGGAGTCACCTAGTGCAG	9590 fluorescence intensity (a.u.)
ACGTCCTATCATGAATTTTGCCTTTGTCGTCCTGCAACCACGGAGTCACCTAGTGCAG	8280 fluorescence intensity (a.u.)
CCATATCATTTGACCAACTGTAAAAGAATGCTCATTTCCCCGGAGTCACCTAGTGCAG	8160 fluorescence intensity (a.u.)
TTCAACTGCTCTCAACCTGATGCCTTGTATGAGATCAGAACGGAGTCACCTAGTGCAG	9240 fluorescence intensity (a.u.)
ACGTCTTCTGCATGATCATCGTGCGCCGTCCCAATAATTCCGGAGTCACCTAGTGCAG	11300 fluorescence intensity (a.u.)
GATTGGCTATAAGTTTATCCTTATTTTCTTCATCCTCTCTCGGAGTCACCTAGTGCAG	12900 fluorescence intensity (a.u.)
GTTGGGCTTCCTTATTGGGTTGGGCTACCTGTCTGATTTTCGGAGTCACCTAGTGCAG	16600 fluorescence intensity (a.u.)
ATGTTAACTTGCTCACTATATGGTTCATCACGTCAGTGTCCGGAGTCACCTAGTGCAG	8090 fluorescence intensity (a.u.)
GCTGAGGTTGTTCTAGACATGGCTGTGTTATGCCTTTTGTCGGAGTCACCTAGTGCAG	9590 fluorescence intensity (a.u.)
AGCTTTCCCTTGTTAAGTACCGAGCTTTGATTGTTTGTTACGGAGTCACCTAGTGCAG	8610 fluorescence intensity (a.u.)
ACCGGCACCTATAGGCCTTTTTCGGGTTTTCCCACCTCCACGGAGTCACCTAGTGCAG	8550 fluorescence intensity (a.u.)
CCCCGCTAAGCGCCCACCACCTGTTCGACGGAAACCCCAGCGGAGTCACCTAGTGCAG	8200 fluorescence intensity (a.u.)
CTCCTAATAATATTACACATATCTGCAAAGTCTCATATTCCGGAGTCACCTAGTGCAG	8180 fluorescence intensity (a.u.)

Sequence	binding signal
CTGTTACCGGTTGACCAAAACAAGGCATATATCGAAATTCCGGAGTCACCTAGTGCAG	8070 fluorescence intensity (a.u.)
GCTGCTGATTTCTGAGTTTTTTTTTTCACAAAGACCTGACCGGAGTCACCTAGTGCAG	8030 fluorescence intensity (a.u.)
ACCACACGAACGCTTCGTAGATGACACAGGCACATACATCCGGAGTCACCTAGTGCAG	8060 fluorescence intensity (a.u.)
GTGGTGGTGCTGTTGGATTAAGAGGTTTCTTTCAGAGATTCGGAGTCACCTAGTGCAG	9260 fluorescence intensity (a.u.)
TTGGATCCCCGCCAAACATTGCCTCGCCAAACATGCGGCTCGGAGTCACCTAGTGCAG	8050 fluorescence intensity (a.u.)
CATCTCCGCCGGCCGCCGTCCTCGCCATCTTCGCCGTCCTCGGAGTCACCTAGTGCAG	12600 fluorescence intensity (a.u.)
TCCGGAACGAAACGGCGGGGTTTCTTTTTCTTTTGTTTCGCGGAGTCACCTAGTGCAG	9400 fluorescence intensity (a.u.)
TGTGCGTTTAGAACTTTCGGCCCATCTCCATCTATAAAATCGGAGTCACCTAGTGCAG	8360 fluorescence intensity (a.u.)
GTGCTACTCCATATACGTATGGCTGGTTTGGTTGGTTGAGCGGAGTCACCTAGTGCAG	21400 fluorescence intensity (a.u.)
AACTCATCGTGGCCCACAATCGCGCTGTTTTTATTGACCACGGAGTCACCTAGTGCAG	8620 fluorescence intensity (a.u.)
TGTGTGAATGTGTGATCCGTTGCCTAGAGTTAATTTTATACGGAGTCACCTAGTGCAG	8260 fluorescence intensity (a.u.)
CAAACTGTTTGGTCAAAGTCAAACTGTTTCAAGTTTGACTCGGAGTCACCTAGTGCAG	8070 fluorescence intensity (a.u.)
CAGGCCACCGTCTCTGCTTGACTGCTTCCTGCAACCATCTCGGAGTCACCTAGTGCAG	8460 fluorescence intensity (a.u.)
AATGGTTTTATCGTTTTACGTGTGTACACCACTTATATATCGGAGTCACCTAGTGCAG	8060 fluorescence intensity (a.u.)
AGCACTATTGATGGTTGGTGGTAAGTGGTTTTCAAAAGATCGGAGTCACCTAGTGCAG	9400 fluorescence intensity (a.u.)
AACTTTTATGTTCATGACTTTTTCAGCTGAAATTATTTACCGGAGTCACCTAGTGCAG	8420 fluorescence intensity (a.u.)
AACCACACCACACTGGTCTCTACCTTCCTTTCTTGCTTTCCGGAGTCACCTAGTGCAG	8610 fluorescence intensity (a.u.)
CATCCCTCCGGAACCTCCACTACTACTCGCCCCACCAATGCGGAGTCACCTAGTGCAG	8470 fluorescence intensity (a.u.)
GAGTAGAGGTGGGAGGAAGCGGTGGTGTGGTGGGGTGGGGCGGAGTCACCTAGTGCAG	22100 fluorescence intensity (a.u.)
AAGACGAATGATCAAACACGTACTAAAAAAGTCAACGGTGCGGAGTCACCTAGTGCAG	11600 fluorescence intensity (a.u.)
ACTGCCTTTGTTATATTACCACATGCACACACTCTCTCTCCGGAGTCACCTAGTGCAG	9200 fluorescence intensity (a.u.)

Part of the list above, with each value named:
TTTAGCACTGTTCATGTTCAACATTTGACCGTTCGTCTTACGGAGTCACCTAGTGCAG
  binding signal = 11400 fluorescence intensity (a.u.)
CCATATCATTTGACCAACTGTAAAAGAATGCTCATTTCCCCGGAGTCACCTAGTGCAG
  binding signal = 8160 fluorescence intensity (a.u.)
CCCCGCTAAGCGCCCACCACCTGTTCGACGGAAACCCCAGCGGAGTCACCTAGTGCAG
  binding signal = 8200 fluorescence intensity (a.u.)
CAAACTGTTTGGTCAAAGTCAAACTGTTTCAAGTTTGACTCGGAGTCACCTAGTGCAG
  binding signal = 8070 fluorescence intensity (a.u.)

Following part.

Sequence	binding signal
GGACCGTTCTTGCTTCTTTTATATATGCATTTGAGTGAAGCGGAGTCACCTAGTGCAG	9110 fluorescence intensity (a.u.)
CTTTTACTATTGCGCATCACCTCTTTGCACTGCGTTATTACGGAGTCACCTAGTGCAG	11800 fluorescence intensity (a.u.)
CTTTCCAACGTTGGTGAATCATGATCGGTCAATTTGCAACCGGAGTCACCTAGTGCAG	8740 fluorescence intensity (a.u.)
TGCAATGTACTTTGCATGCGTCACACGCCCTTGTCAAGAACGGAGTCACCTAGTGCAG	8160 fluorescence intensity (a.u.)
CTTTAATCTACTACGTTTTCTTAGCTCAAAACACACACAACGGAGTCACCTAGTGCAG	9060 fluorescence intensity (a.u.)
TTCTTGTATCTTTCTTGATGCAACCATCGATCCAACCATCCGGAGTCACCTAGTGCAG	8480 fluorescence intensity (a.u.)
TTTATTCCCTACCGCCGCTCCACCACTCGCTTCCCTTTTTCGGAGTCACCTAGTGCAG	10200 fluorescence intensity (a.u.)
TTTACATTTTCTGTACTTTCTGGTCATCATTTGCTATTTTCGGAGTCACCTAGTGCAG	9580 fluorescence intensity (a.u.)
AACTAAACACGGCCAATGTATTTCTAATATATATATATATCGGAGTCACCTAGTGCAG	8250 fluorescence intensity (a.u.)
TTCCCATTCACAACTTTGCTGATTTTGTTTTTATTTTAGTCGGAGTCACCTAGTGCAG	8870 fluorescence intensity (a.u.)
ACTCACAAAGCAATACAAGTCTTTTCTGCACACTTTGTCCCGGAGTCACCTAGTGCAG	9630 fluorescence intensity (a.u.)
GTCAACCGGGAATTTCCGTGGCCGTTTTTCTACTCCTTTCCGGAGTCACCTAGTGCAG	9040 fluorescence intensity (a.u.)
GCCGGGGCCGGGGCGGGCGTGGGCCCCTTCGCTCCGATGGCGGAGTCACCTAGTGCAG	8590 fluorescence intensity (a.u.)
CTGGTTTTGTGGTTGGGGACGATTTTGTAACTCGATGACACGGAGTCACCTAGTGCAG	13500 fluorescence intensity (a.u.)
AGCCCTGGTACTTTTTCGAACCCTTTGGCACCTGATATCTCGGAGTCACCTAGTGCAG	9150 fluorescence intensity (a.u.)
ATTTTTTTTCTAGTCAAACTTTGTTAAGTTTGACCAAAATCGGAGTCACCTAGTGCAG	9790 fluorescence intensity (a.u.)
GAGCGGGGCGGGGCTGCATTTGGCGTCGCGATGGACCTCACGGAGTCACCTAGTGCAG	12600 fluorescence intensity (a.u.)
CCTACTCCATATGCTTTTCCTAAACCCATCACCTATCCAACGGAGTCACCTAGTGCAG	10700 fluorescence intensity (a.u.)
TATTCGTGATATCTGCTGGGTACCATTAAAATTGCTATGACGGAGTCACCTAGTGCAG	8170 fluorescence intensity (a.u.)
TAGCTTAATATTTTTTTTCTCGCTAGCTTTATTTAAAATGCGGAGTCACCTAGTGCAG	8170 fluorescence intensity (a.u.)
AGCTTTAGTTGTCGCCGACCAGATTGACCACCAGTTCCAACGGAGTCACCTAGTGCAG	8250 fluorescence intensity (a.u.)

Sequence	binding signal
CATCATATACGTTTTACGCGCCTCGATCAGAAATAAGTTCCGGAGTCACCTAGTGCAG	10600 fluorescence intensity (a.u.)
CGAACCTCTTGCTTCTTTTCTGTAGCTTTCTAATGTTGTTCGGAGTCACCTAGTGCAG	10900 fluorescence intensity (a.u.)
GGCGATCGGCTTGGTGTGTGCTGTGTTATCCCAGTGCCCGCGGAGTCACCTAGTGCAG	10500 fluorescence intensity (a.u.)
ATGGTTAGATTCCTTGTGATCAAGCTAGCTTACCCAAATTCGGAGTCACCTAGTGCAG	8160 fluorescence intensity (a.u.)
GTTTATCCGCAAGAAAGTTTTTACACGTCCTCGCAAATTGCGGAGTCACCTAGTGCAG	8220 fluorescence intensity (a.u.)
GCCGCTGCTCCCTCGTCGCCTGCGCCCGCTCGTGTGCCGCCGGAGTCACCTAGTGCAG	8330 fluorescence intensity (a.u.)
ACCCTCTTCTTCGCCCGCCGCCTGCGTGTCGCGCCGATCTCGGAGTCACCTAGTGCAG	14300 fluorescence intensity (a.u.)
GCCTTAGTGTCACCGATCATTTCCCATTCACAACTTTGCTCGGAGTCACCTAGTGCAG	10100 fluorescence intensity (a.u.)
ATGAATCGTTGACCGTTGAGACTTGAGAATTGGATTTACCCGGAGTCACCTAGTGCAG	13400 fluorescence intensity (a.u.)
CCCACTTCTTCCTTCCTGCGCGCCTCTCCAAACCACCATGCGGAGTCACCTAGTGCAG	9090 fluorescence intensity (a.u.)
GTACTCCTTTGGTTTCCCTTTTTTTTATGTATGTGATTAACGGAGTCACCTAGTGCAG	10100 fluorescence intensity (a.u.)
GAATTCATCTCATCTCATCTGATTTCGGTGGTGTTTGGATCGGAGTCACCTAGTGCAG	8160 fluorescence intensity (a.u.)
CGGATTTGCATCTTGTATTTTTTTTGTTTCATATTTCTCACGGAGTCACCTAGTGCAG	8570 fluorescence intensity (a.u.)
CAAACATACTTCTACGTTACATGCTCCTACTAGTCCTCGCCGGAGTCACCTAGTGCAG	8900 fluorescence intensity (a.u.)
CGTCACCATCATTCCAACGTGATAAACATGTTGCCATGCACGGAGTCACCTAGTGCAG	8140 fluorescence intensity (a.u.)
CATGTCATCGATTTTCCTTCAATATATAGCACTTCCGTTACGGAGTCACCTAGTGCAG	8620 fluorescence intensity (a.u.)
GCGGCGGGGTGTCGCGGTGGTGGGTGAAGGCGACGTCGACCGGAGTCACCTAGTGCAG	9190 fluorescence intensity (a.u.)
GCCTTCTAGACATAGTATTTCCTTGTTTCATTGTTTGTATCGGAGTCACCTAGTGCAG	9430 fluorescence intensity (a.u.)
TAGGGGCTCCATCACATTCTCAGCACAGCCGACAAGTCGACGGAGTCACCTAGTGCAG	8120 fluorescence intensity (a.u.)
CGATTCCCATGTTCCCTGCTTGACTTCGAACGCATTTGTCCGGAGTCACCTAGTGCAG	10200 fluorescence intensity (a.u.)
TTCCTGGGCCAACCGTGCCCCGTCCACGGCCCATTTTTCACGGAGTCACCTAGTGCAG	8060 fluorescence intensity (a.u.)
